Measured values from article PMC11809421.
Results are given in words; binding and its absence hold for the method and conditions named. For some of these results: Binding seen in cells or lysates may run through a third protein. Some binding calls cover weakened binding; strength is not graded here.

Sequences of proteins named here, by UniProt entry; tags and fusion partners are left off. Residues count along the entry.
UniProt P36222, residues 22-383: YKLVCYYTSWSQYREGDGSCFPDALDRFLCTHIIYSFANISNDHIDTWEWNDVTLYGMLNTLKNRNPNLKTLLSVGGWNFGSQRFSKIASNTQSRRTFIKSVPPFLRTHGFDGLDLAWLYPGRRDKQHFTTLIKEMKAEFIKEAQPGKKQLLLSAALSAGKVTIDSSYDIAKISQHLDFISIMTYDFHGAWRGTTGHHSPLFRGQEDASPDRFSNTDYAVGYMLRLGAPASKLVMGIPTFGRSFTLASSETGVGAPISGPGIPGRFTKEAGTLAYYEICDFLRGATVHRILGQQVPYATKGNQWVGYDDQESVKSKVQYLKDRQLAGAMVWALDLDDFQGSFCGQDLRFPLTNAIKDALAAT
UniProt Q61362, residues 30-389: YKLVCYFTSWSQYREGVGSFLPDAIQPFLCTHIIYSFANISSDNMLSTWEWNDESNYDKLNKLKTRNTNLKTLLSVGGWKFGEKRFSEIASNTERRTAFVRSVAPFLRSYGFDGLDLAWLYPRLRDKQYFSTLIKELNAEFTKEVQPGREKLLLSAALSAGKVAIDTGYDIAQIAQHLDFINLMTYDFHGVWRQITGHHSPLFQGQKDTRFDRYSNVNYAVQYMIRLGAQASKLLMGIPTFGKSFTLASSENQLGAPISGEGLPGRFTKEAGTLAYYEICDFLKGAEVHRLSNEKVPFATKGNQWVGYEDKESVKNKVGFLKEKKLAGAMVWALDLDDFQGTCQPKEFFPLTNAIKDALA

Legend:
[1] = target: T1, recombinant interleukin‐17 receptor A (human) (human) (UniProt Q96F46); assay: co-IP; cell-free, in tube: 5 ug human rChi3L1 and 5 ug human rIL-17RA mixed in lysis buffer, shaken at 4 °C overnight, then Co-IP (Pierce Co-IP kit); both purified
T1 sequence: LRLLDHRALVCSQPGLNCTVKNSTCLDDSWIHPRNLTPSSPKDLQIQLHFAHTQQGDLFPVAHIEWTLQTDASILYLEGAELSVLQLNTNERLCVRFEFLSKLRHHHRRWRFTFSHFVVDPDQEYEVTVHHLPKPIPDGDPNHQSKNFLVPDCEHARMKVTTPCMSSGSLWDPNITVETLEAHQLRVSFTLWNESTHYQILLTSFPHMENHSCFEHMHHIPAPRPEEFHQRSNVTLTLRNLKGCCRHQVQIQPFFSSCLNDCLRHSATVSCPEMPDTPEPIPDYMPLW

[2] = target: T1, recombinant interleukin‐17 receptor A (human) (human); assay: SPR; Biacore 8K; IL-17RA recombinant protein immobilised on Series S Sensor Chip CM5; Chi3L1 (15.625-1000 nmol/L) in running buffer injected as analyte; both purified
[3] = target: T2, interleukin‐17 receptor A, endogenous in dermal fibroblasts of SSc patients (human (endogenous in SSc dermal fibroblasts)) (UniProt Q96F46); assay: co-IP; SSc dermal fibroblasts treated with human rChi3L1 for 10 min, rinsed, lysed (Tris pH 7.4, 150 mM NaCl, 1 mM EDTA, 1% NP40, 5% glycerol); Pierce Co-IP kit; IP with anti-IL-17RA and blot for Chi3L1, and vice versa; only the binder purified
T2 sequence: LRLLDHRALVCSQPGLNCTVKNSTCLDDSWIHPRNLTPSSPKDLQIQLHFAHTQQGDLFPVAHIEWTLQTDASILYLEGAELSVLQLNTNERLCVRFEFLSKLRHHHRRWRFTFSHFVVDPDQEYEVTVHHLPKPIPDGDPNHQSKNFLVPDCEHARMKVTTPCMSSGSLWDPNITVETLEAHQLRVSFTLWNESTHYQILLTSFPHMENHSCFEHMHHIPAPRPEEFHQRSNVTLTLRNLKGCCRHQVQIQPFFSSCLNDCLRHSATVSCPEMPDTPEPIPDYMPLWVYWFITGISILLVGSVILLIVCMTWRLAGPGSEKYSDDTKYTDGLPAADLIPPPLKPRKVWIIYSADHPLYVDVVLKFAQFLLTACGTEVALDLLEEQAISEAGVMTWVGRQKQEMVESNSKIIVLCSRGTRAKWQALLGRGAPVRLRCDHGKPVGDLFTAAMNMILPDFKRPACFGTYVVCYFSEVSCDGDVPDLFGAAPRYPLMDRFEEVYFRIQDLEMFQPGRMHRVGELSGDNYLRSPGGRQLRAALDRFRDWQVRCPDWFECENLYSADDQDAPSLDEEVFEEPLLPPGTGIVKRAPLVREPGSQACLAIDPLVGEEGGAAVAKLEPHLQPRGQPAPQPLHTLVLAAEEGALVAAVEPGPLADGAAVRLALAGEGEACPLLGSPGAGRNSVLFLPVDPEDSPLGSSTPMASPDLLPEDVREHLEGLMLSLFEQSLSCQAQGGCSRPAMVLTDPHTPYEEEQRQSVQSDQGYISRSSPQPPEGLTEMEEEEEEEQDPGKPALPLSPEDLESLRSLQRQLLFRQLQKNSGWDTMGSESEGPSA

[4] = target: T3, interleukin‐17 receptor A, endogenous in dermal fibroblasts of BLM‐SSc mice (mouse (endogenous in dermal fibroblasts of BLM-SSc mice)) (UniProt Q60943); assay: co-IP; dermal fibroblasts of BLM-SSc mice treated with mouse rChi3L1 for 10 min, rinsed, lysed; Pierce Co-IP kit; only the binder purified
T3 sequence: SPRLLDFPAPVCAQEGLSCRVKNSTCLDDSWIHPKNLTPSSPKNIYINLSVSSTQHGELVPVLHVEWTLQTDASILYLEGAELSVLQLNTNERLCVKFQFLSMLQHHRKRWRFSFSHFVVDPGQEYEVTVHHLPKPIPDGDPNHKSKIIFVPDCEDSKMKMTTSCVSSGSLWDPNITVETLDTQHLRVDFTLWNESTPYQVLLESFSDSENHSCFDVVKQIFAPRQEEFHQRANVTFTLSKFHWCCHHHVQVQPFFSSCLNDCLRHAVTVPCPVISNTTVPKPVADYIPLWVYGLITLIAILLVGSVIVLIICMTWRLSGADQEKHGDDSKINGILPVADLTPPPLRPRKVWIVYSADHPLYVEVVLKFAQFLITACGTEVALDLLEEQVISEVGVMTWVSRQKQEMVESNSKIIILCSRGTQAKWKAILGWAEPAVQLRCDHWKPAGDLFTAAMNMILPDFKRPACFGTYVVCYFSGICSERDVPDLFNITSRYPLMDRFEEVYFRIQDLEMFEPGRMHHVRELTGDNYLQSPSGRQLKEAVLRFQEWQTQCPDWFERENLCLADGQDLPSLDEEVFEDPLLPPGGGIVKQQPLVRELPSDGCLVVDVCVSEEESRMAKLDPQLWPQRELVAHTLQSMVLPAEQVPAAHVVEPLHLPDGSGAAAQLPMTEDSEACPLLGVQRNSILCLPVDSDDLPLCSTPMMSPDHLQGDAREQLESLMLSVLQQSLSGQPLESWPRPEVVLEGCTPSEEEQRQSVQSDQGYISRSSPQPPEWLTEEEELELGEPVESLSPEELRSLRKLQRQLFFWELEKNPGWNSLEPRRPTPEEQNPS

Row | binding [1] | binding [2] | binding [3] | binding [4] | Substance
1 | binds | binds | binds | – | recombinant chitinase 3‐like 1 (human) (from UniProt P36222 22-383) (ligand)
2 | – | – | – | binds | recombinant chitinase 3‐like 1 (mouse) (from UniProt Q61362 30-389) (ligand)
